From US6130204A (Merck & Co., Inc., priority 1998, dated 2000)

Tests used:
[1] = Boc solid-phase peptide synthesis; Boc-Leu-PAM resin; DCC and HOBT; conditions: whole synthesis, scale 0.5 mmol
[2] = Boc solid-phase peptide synthesis; MBHA resin; DCC and HOBT; conditions: whole synthesis, scale 0.5 mmol

Substance	crude mass [1] [g]	crude mass [2] [mg]
Ac-K(Fmoc)YQSSSL-OH	0.46	–
NH2 -Leu-Asn-Lys(Fmoc)-Ala-Ser-Tyr-Gln-Ser-Ser-Ser-Leu-Amide	–	750

* marks the point of attachment. Fmoc = O=C(OCC1c2ccccc2-c2ccccc21)*
